From patent US20160271230A1 (UNIVERSITY HEALTH NETWORK, published 2016)
These are yes or no findings as the source states them, for the method shown. In cells and extracts the contact can be indirect. Some entries that bind do so weakly or less than the wild type. Tags and fused reporters may be left off the sequences shown. Values belong to the binder of their own block, whether it stands above or below them.

Legend:
[1] = target: T1, His-tagged 6FNIII-domain of Neogenin (Gallus gallus, UniProt Q90610 429-1036); assay: pull-down with peptide-coated beads, anti-His Western blot (FIG. 2B)
T1 construct: also called His-6FNIII; His-FNIII; not shown: His tag
T1 sequence: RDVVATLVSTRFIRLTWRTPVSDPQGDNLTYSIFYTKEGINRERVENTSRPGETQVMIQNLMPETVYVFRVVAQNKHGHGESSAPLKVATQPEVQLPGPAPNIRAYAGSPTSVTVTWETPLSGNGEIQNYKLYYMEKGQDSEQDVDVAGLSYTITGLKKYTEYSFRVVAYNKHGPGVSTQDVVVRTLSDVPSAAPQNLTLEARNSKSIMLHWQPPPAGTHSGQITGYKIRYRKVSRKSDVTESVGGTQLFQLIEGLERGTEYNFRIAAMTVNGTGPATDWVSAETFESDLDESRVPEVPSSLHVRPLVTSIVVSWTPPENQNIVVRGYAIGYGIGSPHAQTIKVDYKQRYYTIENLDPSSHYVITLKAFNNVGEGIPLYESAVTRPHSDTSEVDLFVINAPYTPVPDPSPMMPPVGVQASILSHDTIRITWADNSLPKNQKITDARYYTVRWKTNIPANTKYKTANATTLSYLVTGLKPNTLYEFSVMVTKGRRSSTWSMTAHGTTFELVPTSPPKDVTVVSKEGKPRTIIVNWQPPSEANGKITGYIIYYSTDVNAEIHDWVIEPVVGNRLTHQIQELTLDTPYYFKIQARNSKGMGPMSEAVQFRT

[2] = target: T1, His-tagged 6FNIII-domain of Neogenin; assay: pull-down with peptide-coated beads (FIG. 2B)
[3] = target: T2, His-tagged 4Ig-domain of Neogenin (Gallus gallus, UniProt Q90610 1-383); assay: pull-down with peptide-coated beads, anti-His Western blot (FIG. 2B)
T2 construct: Secreted from transfected cells, purified on Ni-NTA; also called His-4Ig; Neogenin-4Ig; not shown: 6-His tag at the N-terminus; myc and 6-His tags of the pSectag 2B vector at the C-terminus
T2 sequence: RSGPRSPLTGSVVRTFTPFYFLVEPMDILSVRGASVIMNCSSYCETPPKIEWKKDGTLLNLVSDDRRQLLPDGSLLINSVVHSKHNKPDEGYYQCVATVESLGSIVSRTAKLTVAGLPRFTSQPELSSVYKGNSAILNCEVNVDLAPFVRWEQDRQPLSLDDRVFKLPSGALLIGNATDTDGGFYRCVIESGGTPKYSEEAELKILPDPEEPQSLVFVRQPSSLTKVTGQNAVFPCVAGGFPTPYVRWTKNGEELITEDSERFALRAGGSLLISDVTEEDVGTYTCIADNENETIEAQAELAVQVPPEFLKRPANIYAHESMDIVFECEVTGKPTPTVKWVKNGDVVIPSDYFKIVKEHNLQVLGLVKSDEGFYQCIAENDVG

[4] = target: T2, His-tagged 4Ig-domain of Neogenin; assay: pull-down with peptide-coated beads (FIG. 2B)

binding [1]: binds | binding [2]: binds
B1: N-inh peptide (amino acids 77-113 of RGMa), His-tagged (peptide)
peptide: GDLAYHSAVHGIDDLMVQHNCSKDGPTSQPRLRTLPP
notes: not shown: 6-His tag at the N-terminus; myc tag and 6-His tag at the C-terminus

binding [3]: binds | binding [4]: binds
B2: N-Raft peptide (amino acids 28-73 of RGMa), His-tagged (peptide)
peptide: SPCKILKCNSEFWAATSGSHHLGAEETPEFCTALRAYAHCTRRTAR
notes: also called N-RGMa^28-73; N-RGMa28-73; not shown: 6-His tag at the N-terminus
